Laboratory results from article PMC9225179.
The exact form of at least one protein or probe is not confirmed. For part of these data: A negative result means that nothing was seen under these conditions.

How the values were obtained:
Test in all cases: EMSA
[1] = tested on: TBP (TATA-binding protein) + TFIIF + RNA polymerase II core enzyme; details: no TFIIB; EMSA: 20 mM HEPES pH 7.9, 50 mM KCl, 5 mM MgCl2, 0.1 mM EDTA, 5% glycerol, 0.5% PEG 8000, 2 mM DTT, 0.1 mM PMSF, 50 ng acetylated BSA, 50 ng poly(dG-dC), 5-10 ng probe; recombinant protein; label: 5' 32P
[2] = tested on: TBP (TATA-binding protein) + TFIIB (SpIIB) + TFIIF + RNA polymerase II core enzyme; details: TFIIF 20 or 40 ng, RNAPII 100 ng; EMSA: 20 mM HEPES pH 7.9, 50 mM KCl, 5 mM MgCl2, 0.1 mM EDTA, 5% glycerol, 0.5% PEG 8000, 2 mM DTT, 0.1 mM PMSF, 50 ng acetylated BSA, 50 ng poly(dG-dC), 5-10 ng probe; recombinant protein; label: 5' 32P
[3] = tested on: TBP (TATA-binding protein) + TFIIB (SpIIB); details: 20 ng each factor; EMSA: 20 mM HEPES pH 7.9, 50 mM KCl, 5 mM MgCl2, 0.1 mM EDTA, 5% glycerol, 0.5% PEG 8000, 2 mM DTT, 0.1 mM PMSF, 50 ng acetylated BSA, 50 ng poly(dG-dC), 5-10 ng probe; recombinant protein; label: 5' 32P

GGCTATAAAAGGGGGTGGGGAGGACTTCCCCCCGATATTTTCCCCCACCCC (double strand) [Ad-MLP TATA box probe]
binding result [1]: no binding | binding result [2]: binds | binding result [3]: binds
